According to publication PMC6781351:
No constants are given. Whether binding was seen depends on the method and setting. In cells and extracts the contact can be indirect. Binding calls can cover weak binding; strength is not graded here. Tags and fused reporters may be left off the sequences shown.

These substances were tested against T1, His-LSH (UniProt Q9NRZ9) (assay: co-IP; anti-His antibody; HEK293T cells transfected with His-LSH plus one of the FLAG-PKM2 mutants).
T1 sequence: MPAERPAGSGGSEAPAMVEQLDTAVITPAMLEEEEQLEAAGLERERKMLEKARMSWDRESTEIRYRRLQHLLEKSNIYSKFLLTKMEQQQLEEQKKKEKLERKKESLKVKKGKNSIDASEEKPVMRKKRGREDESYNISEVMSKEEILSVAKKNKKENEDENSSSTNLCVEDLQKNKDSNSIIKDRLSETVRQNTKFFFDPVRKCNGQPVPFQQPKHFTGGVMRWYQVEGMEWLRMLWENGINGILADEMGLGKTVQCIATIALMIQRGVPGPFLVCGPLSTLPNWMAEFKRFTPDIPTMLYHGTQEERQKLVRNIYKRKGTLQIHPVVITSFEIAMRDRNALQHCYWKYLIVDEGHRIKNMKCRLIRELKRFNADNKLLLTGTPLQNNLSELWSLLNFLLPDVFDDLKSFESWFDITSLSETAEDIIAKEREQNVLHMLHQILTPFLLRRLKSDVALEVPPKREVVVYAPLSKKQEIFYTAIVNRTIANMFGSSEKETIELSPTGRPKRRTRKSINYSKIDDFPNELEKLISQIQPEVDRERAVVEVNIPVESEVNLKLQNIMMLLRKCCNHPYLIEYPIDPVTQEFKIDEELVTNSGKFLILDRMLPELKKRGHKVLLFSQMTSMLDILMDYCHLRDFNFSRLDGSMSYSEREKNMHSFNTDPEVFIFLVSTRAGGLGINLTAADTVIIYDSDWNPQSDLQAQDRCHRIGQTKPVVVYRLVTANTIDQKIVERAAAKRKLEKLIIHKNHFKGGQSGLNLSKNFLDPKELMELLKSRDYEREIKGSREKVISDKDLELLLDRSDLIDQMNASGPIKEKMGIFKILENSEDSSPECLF

Row | binding | Substance
1 | binds weakly | FLAG-PKM2 ΔC55 (domain or fragment)
2 | binds | FLAG-PKM2 ΔC110 (domain or fragment)
3 | no binding | FLAG-PKM2 ΔC165 (domain or fragment)
4 | binds | FLAG-PKM2 ΔN110 (domain or fragment)
